Taken from: PubChem BioAssay AID493246 (Drosophila RNAi Screening Center, 2011)

- Aim: 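Genes fly cells need to grow and stay alive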 (primary screen)
- Cell system: Drosophila Kc and S2R+ cells
- Reagents: long dsRNA against Drosophila genes
- Detection: 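Raw, unnormalised count of remaining cells in each well; per-plate z-scores of cell number underlie the calls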
- Direction: Kc cell number and S2R+ cell number: higher = more cells remaining
- Call rule: 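Counted as a hit if cell number falls by a z-score of at least 3 within its plate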
The screen tested about 21,000 reagents; shown is an unselected part of those with a known target gene and a result. In the full data, 429 (2%) were called active. 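Values are raw and not normalised between plates; calls rest on per-plate z-scores that were not deposited.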 The numbers tell different reagents against one gene apart. Not stated in the record: the amount of reagent, the time to read-out.

no.	predicted target	reagent	Kc cell number, rep 1	Kc cell number, rep 2	S2R+ cell number, rep 1	S2R+ cell number, rep 2	outcome
1	Sap47 (Synapse-associated protein 47kD)	1	1.61e6	1.69e6	1.26e6	1.42e6	inactive
2	Pgam5 (Phosphoglycerate mutase 5)	1	4.74e5		7.47e5		inactive
3	Rab3-GAP (Rab3 GTPase activating protein)	1	1.34e6	1.44e6	1.24e6	1.29e6	inactive
4	CG3581	1	1.34e6	1.35e6	9.90e5	1.10e6	inactive
5	Nepl9 (Neprilysin-like 9)	1	1.57e6	1.55e6	1.28e6	1.39e6	inactive
6	mRpS25 (mitochondrial ribosomal protein S25)	1	1.69e6	1.76e6	1.04e6	1.27e6	inactive
7	CR46300 (pseudo)	1	1.81e6	1.88e6	1.19e6	1.44e6	inactive
8	HHEX (Hematopoietically expressed homeobox)	1	1.45e6	1.47e6	8.08e5	9.47e5	inactive
9	CG17648	1	1.65e6	1.55e6	1.17e6	1.43e6	inactive
10	Acsl (Acyl-CoA synthetase long-chain)	1	1.25e6	1.34e6	1.07e6	1.18e6	inactive
11	CG5731	1	1.79e6	1.83e6	1.20e6	1.29e6	inactive
12	CG16959	1	1.40e6	1.45e6	1.28e6	1.26e6	inactive
13	CG4020	1	1.57e6	1.54e6	1.07e6	1.22e6	inactive
14	PGRP-SC1a (Peptidoglycan recognition protein SC1a)	1	1.64e6	1.68e6	1.38e6	1.53e6	inactive
15	lz (lozenge)	1	1.42e6	1.64e6	1.07e6	1.16e6	inactive
16	ttm2 (tiny tim 2)	1	1.30e6	1.31e6	1.07e6	1.24e6	inactive
17	CG3588	1	1.46e6	1.46e6	1.00e6	1.07e6	inactive
18	Spn43Ad (Serpin 43Ad)	1	1.46e6	1.54e6	1.28e6	1.37e6	inactive
19	Shrm (Shroom)	1	1.49e6	1.54e6	1.19e6	1.22e6	inactive
20	Shrm (Shroom)	2	1.53e6	1.48e6	1.13e6	1.15e6	inactive
21	Shrm (Shroom)	3	1.43e6	1.45e6	1.16e6	1.24e6	inactive
22	CG43325	1	1.53e6	1.61e6	1.32e6	1.30e6	inactive
23	CG9399	1	1.46e6	1.50e6	1.24e6	1.33e6	inactive
24	Zw (Zwischenferment)	1	1.46e6	1.50e6	1.04e6	1.17e6	inactive

Reprinted from the listing for reference:
no.	predicted target	reagent	Kc cell number, rep 1	Kc cell number, rep 2	S2R+ cell number, rep 1	S2R+ cell number, rep 2	outcome
21	Shrm (Shroom)	3	1.43e6	1.45e6	1.16e6	1.24e6	inactive
22	CG43325	1	1.53e6	1.61e6	1.32e6	1.30e6	inactive
